Results published in patent publication US20190358343A1, “ADOPTIVE TRANSFER OF CAR T CELLS WITH SURFACE-CONJUGATED DRUG-LOADED NANOPARTICLES AND USES THEREOF” (University of Southern California, priority 2017, published 2019).

Assay: Drug encapsulation and release of SCH from cell-conjugated nanoparticles

Structure (SMILES): Nc1nc2c(cnn2CCc2ccccc2)c2nc(-c3ccco3)nn12 [SCH-58261]
- amount released within the first 48h-post conjugation: half the amount
